These are yes or no findings as the source states them, for the method shown. For some assays here: In cells and extracts the contact can be indirect. Some results given as binding are weak or reduced against the parent protein; the word gives no strength.
Experiments:
[1] = target: CD44 (erythroid isoform CD44H) (human (endogenous in red cells)) (UniProt P16070); assay: MAIEA (monoclonal antibody-specific immobilisation of erythrocyte antigens, ELISA format); intact red cells incubated with human anti-MAM and a mouse monoclonal antibody (consecutive 1 h incubations at 37 °C), lysed and solubilised in Triton-X buffer; complexes captured on goat anti-mouse IgG and detected with anti-human IgG peroxidase; adsorbance ratio of MAM-positive to MAM-negative cells above 2.0 is positive
[2] = target: CD44 (erythroid isoform CD44H) (human (endogenous in red cells)) (UniProt P16070); assay: co-IP; immunoprecipitation from normal MAM-positive red cell membranes with immunoblotting (anti-CD44 BRIC222 and KZ-1, anti-MAM eluates); which partner was precipitated is not stated

By UniProt entry, the sequences of proteins in these tests, tags left out. Where a name states a change or a piece, a line headed by the entry shows the natural chain unless it says otherwise. Chains listed by the source or under a name are the forms on record and can include a tag or linker.
CD44 (erythroid isoform CD44H) (human (endogenous in red cells)) (P16070, form named): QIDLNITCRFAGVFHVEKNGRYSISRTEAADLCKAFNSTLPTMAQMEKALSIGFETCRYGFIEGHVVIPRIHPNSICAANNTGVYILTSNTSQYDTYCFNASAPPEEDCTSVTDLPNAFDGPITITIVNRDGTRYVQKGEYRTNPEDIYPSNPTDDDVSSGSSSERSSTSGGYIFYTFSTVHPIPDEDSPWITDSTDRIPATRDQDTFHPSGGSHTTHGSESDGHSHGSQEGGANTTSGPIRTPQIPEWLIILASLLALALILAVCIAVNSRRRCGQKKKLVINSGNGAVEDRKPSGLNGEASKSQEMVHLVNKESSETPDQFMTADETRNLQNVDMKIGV

binding [1]: binds
binding [2]: binds
B1: epithelial membrane protein 3 (EMP3) (protein, UniProt P54852 1-163)
chain: MSLLLLVVSALHILILILLFVATLDKSWWTLPGKESLNLWYDCTWNNDTKTWACSNVSENGWLKAVQVLMVLSLILCCLSFILFMFQLYTMRRGGLFYATGLCQLCTSVAVFTGALIYAIHAEEILEKHPRGGSFGYCFALAWVAFPLALVSGIIYIHLRKRE

Reference: paper PMC7366909
